Data taken from patent US7056509B2 (Board of Regents The University of Texas System, priority 1999, dated 2006).
Some entries share one result that the patent states for a list of compounds.

Test system: VEGF-induced permeability
Assay: Miles permeability assay
Type: in vivo, guinea pig
Conditions: guinea pigs

Substance: 2C3: monoclonal anti-VEGF antibody, IgG2a k, hybridoma ATCC PTA 1595; blocks VEGF binding to VEGFR2 but not VEGFR1
- Molar excess of IgG over VEGF at which VEGF-induced permeability was inhibited: ≥ 10 fold
